# Results reported in the supplement of paper PMC10849652.
# The chains behind the UniProt entries cited, without tags or fusion partners. Where a name states a change or a piece, a line headed by the entry shows the natural chain unless it says otherwise.
# UniProt Q8N2F6: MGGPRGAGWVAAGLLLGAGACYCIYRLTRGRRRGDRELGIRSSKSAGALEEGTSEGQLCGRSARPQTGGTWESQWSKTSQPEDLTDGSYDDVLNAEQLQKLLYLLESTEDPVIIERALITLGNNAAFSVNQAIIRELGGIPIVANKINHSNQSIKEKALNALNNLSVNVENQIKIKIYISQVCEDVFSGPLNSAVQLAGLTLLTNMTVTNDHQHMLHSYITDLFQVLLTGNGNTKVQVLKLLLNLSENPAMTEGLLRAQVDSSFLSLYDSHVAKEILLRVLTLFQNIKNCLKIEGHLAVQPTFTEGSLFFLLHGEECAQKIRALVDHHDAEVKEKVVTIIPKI
# UniProt P54709, whole entry, looked up: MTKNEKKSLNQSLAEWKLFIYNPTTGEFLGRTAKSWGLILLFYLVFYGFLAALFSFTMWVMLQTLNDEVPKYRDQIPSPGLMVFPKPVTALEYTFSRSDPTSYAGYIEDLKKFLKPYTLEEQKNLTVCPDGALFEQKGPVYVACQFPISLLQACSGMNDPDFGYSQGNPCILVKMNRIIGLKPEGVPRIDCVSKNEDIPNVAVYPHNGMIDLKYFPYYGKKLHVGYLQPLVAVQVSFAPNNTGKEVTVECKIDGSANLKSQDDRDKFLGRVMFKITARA
# UniProt Q7Z3C6: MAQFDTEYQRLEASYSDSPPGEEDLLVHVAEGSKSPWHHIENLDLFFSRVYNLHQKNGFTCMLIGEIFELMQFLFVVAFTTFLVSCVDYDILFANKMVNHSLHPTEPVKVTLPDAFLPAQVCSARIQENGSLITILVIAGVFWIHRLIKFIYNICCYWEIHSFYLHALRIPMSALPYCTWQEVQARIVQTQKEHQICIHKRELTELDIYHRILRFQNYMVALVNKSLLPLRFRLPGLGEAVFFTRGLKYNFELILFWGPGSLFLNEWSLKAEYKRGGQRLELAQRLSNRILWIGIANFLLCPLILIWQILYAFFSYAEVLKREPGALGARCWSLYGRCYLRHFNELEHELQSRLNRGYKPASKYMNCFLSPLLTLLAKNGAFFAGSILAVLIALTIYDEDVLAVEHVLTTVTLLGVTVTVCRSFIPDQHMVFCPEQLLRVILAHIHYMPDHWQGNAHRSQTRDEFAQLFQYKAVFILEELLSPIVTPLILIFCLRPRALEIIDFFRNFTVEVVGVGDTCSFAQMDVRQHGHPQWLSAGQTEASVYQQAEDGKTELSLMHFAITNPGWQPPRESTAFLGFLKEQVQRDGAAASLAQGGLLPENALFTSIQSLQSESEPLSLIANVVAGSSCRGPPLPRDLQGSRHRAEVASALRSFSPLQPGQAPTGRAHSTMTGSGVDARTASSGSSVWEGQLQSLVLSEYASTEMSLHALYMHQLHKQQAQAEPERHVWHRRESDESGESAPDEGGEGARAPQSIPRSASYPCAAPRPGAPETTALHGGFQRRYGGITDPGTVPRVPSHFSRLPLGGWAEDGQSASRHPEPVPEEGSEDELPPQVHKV
# UniProt Q9Y6H3: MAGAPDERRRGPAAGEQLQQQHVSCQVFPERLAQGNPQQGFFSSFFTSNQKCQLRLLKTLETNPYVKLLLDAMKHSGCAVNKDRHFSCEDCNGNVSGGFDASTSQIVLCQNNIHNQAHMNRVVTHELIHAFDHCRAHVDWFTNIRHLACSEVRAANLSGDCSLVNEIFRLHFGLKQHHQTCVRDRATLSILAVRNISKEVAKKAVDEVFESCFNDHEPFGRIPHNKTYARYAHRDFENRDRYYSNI
# UniProt Q15904, whole entry, looked up: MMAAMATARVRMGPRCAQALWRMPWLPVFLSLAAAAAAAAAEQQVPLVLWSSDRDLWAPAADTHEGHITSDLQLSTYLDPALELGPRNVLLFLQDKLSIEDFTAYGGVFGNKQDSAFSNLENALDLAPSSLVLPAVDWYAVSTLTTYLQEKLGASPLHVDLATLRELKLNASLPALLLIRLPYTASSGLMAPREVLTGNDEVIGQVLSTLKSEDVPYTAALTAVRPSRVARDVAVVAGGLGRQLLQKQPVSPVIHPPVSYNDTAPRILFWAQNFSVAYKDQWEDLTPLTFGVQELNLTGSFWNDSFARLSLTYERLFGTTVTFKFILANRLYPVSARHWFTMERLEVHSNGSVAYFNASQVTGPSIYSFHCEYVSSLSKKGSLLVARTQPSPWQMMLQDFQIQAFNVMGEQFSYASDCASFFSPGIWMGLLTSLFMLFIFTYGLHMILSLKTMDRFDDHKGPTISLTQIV
# UniProt Q13510, whole entry, looked up: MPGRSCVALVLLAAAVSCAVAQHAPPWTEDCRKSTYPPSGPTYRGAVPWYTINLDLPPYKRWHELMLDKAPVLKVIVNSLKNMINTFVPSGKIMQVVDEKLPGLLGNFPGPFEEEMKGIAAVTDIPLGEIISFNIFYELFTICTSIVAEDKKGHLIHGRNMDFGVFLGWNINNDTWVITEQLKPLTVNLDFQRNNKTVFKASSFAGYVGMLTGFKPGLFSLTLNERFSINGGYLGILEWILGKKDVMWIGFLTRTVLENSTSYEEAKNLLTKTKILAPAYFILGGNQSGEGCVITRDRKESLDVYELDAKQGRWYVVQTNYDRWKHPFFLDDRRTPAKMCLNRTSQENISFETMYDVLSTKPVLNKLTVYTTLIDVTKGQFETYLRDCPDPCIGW
# UniProt O00244: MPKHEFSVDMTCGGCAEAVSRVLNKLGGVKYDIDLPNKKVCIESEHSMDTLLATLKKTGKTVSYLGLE
# UniProt P56385: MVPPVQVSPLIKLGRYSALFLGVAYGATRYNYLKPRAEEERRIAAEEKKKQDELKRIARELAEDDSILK
# This is one part of the list.
# Tests used:
# Experiment in all cases: log2 fold change, soluble protein after heating vs DMSO (PISA); higher = thermal stabilisation; K562 cells, 10 uM, 30 min; active = over 0.2 and 3.5 SD of the protein, either way, in both replicates (recomputed)
# [1] = compound: CC[C@@H]1C(=O)N(C)c2cnc(Nc3ccc(C(=O)NC4CCN(C)CC4)cc3OC)nc2N1C1CCCC1
# Procedure, shortened: (§1)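 Values are thermal stability changes relative to control samples and are taken from duplicates. They are stated as log2 fold changes. Before quantification by TMTpro 16plex LC-MS/MS with equalised channel sums, K562 cells at 2×10^6 cells/mL were treated with 10 μM compound for 30 min, heated in aliquots for 3 min across 48°C-58°C, pooled, extracted in PBS with 0.5% NP-40 at 4°C, and centrifuged at 21,000xg for 90 min to give the soluble supernatant.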
# [2] = compound: CC[C@@H]1C(=O)N(C)c2cnc(Nc3ccc(C(=O)N[C@H]4CC[C@H](N5CCN(CC6CC6)CC5)CC4)cc3OC)nc2N1C(C)C [volasertib]
# Procedure, shortened: as §1
# [3] = compound: CC[C@H](C)N1C=C(C2=C(C=C(C=C21)C3=CN=C(C=C3)N4CCNCC4)C(=O)NCC5=C(C=C(NC5=O)C)C)C
# Procedure, shortened: as §1
# [4] = compound: CC[C@H](C)[C@@H](C(=O)N[C@@H]([C@@H](C)O)C(=O)N[C@@H](CC(C)C)C(=O)[C@]1(CO1)C)NC(=O)[C@H]([C@@H](C)CC)N(C)C(=O)C [epoxomicin]
# Procedure, shortened: as §1
# [5] = compound: CCn1cc(-c2ccnc3[nH]c(-c4cccc(CN(C)C)c4)cc23)c(-c2ccc(NC(=O)N(C)C)cc2)n1
# Procedure, shortened: as §1
# [6] = compound: CN(C)CC(=O)Nc1ccc2[nH]c(=O)c3ccccc3c2c1
# Procedure, shortened: as §1
# [7] = compound: CN1C2=C(C3=C1C(=O)N(N=C3)CC4=CC(=CC=C4)N)SC(=C2)S(=O)C
# Procedure, shortened: as §1
# [8] = compound: CN1CCC(CNc2ccc3ncc(-c4cccc(OC(F)(F)F)c4)n3n2)CC1
# Procedure, shortened: as §1
# [9] = compound: CN1CCN(CCOc2cc(OC3CCOCC3)c3c(Nc4c(Cl)ccc5c4OCO5)ncnc3c2)CC1 [saracatinib]
# Procedure, shortened: as §1
# [10] = compound: CN1CCN(c2nc(C3=C(c4c[nH]c5ccccc45)C(=O)NC3=O)c3ccccc3n2)CC1 [sotrastaurin]
# Procedure, shortened: as §1
# [11] = compound: CN1CCc2c(c3ccccc3n2Cc2ccc(C(=O)NO)cc2)C1 [Tubastatin A]
# Procedure, shortened: as §1
# [12] = compound: CNC(=O)C1=CC=CC=C1NC2=NC(=NC=C2Cl)NC3=C(C=C(C=C3)N4CCOCC4)OC
# Procedure, shortened: as §1
# [13] = compound: CNC(=O)c1ccc(Nc2ncc(C(F)(F)F)c(NCc3nccnc3N(C)S(C)(=O)=O)n2)cc1 [defactinib]
# Procedure, shortened: as §1
# [14] = compound: CNCc1ccc(-c2[nH]c3cc(F)cc4c3c2CCNC4=O)cc1 [rucaparib]
# Procedure, shortened: as §1
# [15] = compound: CNc1nc(-c2ccc3c(N)n[nH]c3c2)cc(N2C[C@@H](C(=O)NC3CCCCC3)CC[C@H]2C)n1
# Procedure, shortened: as §1
# [16] = compound: COC(=O)N[C@@H](C)CNc1nccc(-c2cn(C(C)C)nc2-c2cc(Cl)cc(NS(C)(=O)=O)c2F)n1 [encorafenib]
# Procedure, shortened: as §1
# [17] = compound: COC(=O)[C@H](CCSC)NC(=O)C1=C(C=C(C=C1)NC[C@H](CS)N)C2=CC=CC=C2
# Procedure, shortened: as §1
# [18] = compound: CCn1c(C(=O)N(C2CC2)C2CC2)cc2c3c(ncn3C)c(Nc3cc(C)n(C)n3)nc21
# Procedure, shortened: as §1
# [19] = compound: CN(CCOC1=CC=C(C=C1)C[C@H]2C(=O)NC(=O)S2)C3=CC=CC=N3 (racemic) [rosiglitazone]
# Procedure, shortened: as §1
# [20] = compound: CN1CC[C@H](c2c(O)cc(O)c3c(=O)cc(-c4ccccc4Cl)oc23)[C@H](O)C1 [alvocidib]
# Procedure, shortened: as §1
Target,log2 fold change [1],log2 fold change [2],log2 fold change [3],log2 fold change [4],log2 fold change [5],log2 fold change [6],log2 fold change [7],log2 fold change [8],log2 fold change [9],log2 fold change [10],log2 fold change [11],log2 fold change [12],log2 fold change [13],log2 fold change [14],log2 fold change [15],log2 fold change [16],log2 fold change [17],log2 fold change [18],log2 fold change [19],log2 fold change [20]
ARMC10 (UniProt Q8N2F6),inactive: -0.062,active: -0.333,inactive: 0.075,inactive: 0.022,inactive: -0.008,inactive: 0.062,inactive: 0.002,inactive: -0.044,inactive: 0.012,inactive: -0.123,inactive: 0.109,inactive: 0.079,inactive: -0.03,inactive: 0.157,inactive: 0.006,inactive: 0.142,inactive: -0.049,,,
ATP1B3 (UniProt P54709),inactive: 0.06,inactive: 0.094,inactive: -0.022,inactive: -0.033,inactive: -0.028,inactive: 0.012,inactive: -0.063,inactive: 0.168,inactive: -0.019,inactive: 0.084,inactive: -0.014,inactive: 0.004,inactive: -0.047,inactive: -0.033,inactive: 0.016,inactive: -0.023,inactive: 0.034,,,
ATG9A (UniProt Q7Z3C6),inactive: -0.019,active: -0.326,inactive: 0.027,inactive: -0.007,inactive: -0.06,inactive: 0.018,inactive: 0.058,inactive: -0.118,inactive: 0.016,inactive: -0.084,inactive: 0.067,inactive: -0.029,inactive: -0.09,inactive: -0.008,inactive: -0.052,inactive: 0.055,inactive: -0.013,,,
ATP23 (UniProt Q9Y6H3),inactive: -0.007,inactive: 0.004,inactive: -0.078,inactive: 0.016,inactive: 0.055,inactive: -0.045,inactive: -0.087,active: -0.478,inactive: 0.029,inactive: 0.04,inactive: -0.056,inactive: 0.055,inactive: 0.028,inactive: 0.096,inactive: 0.041,inactive: 0.001,inactive: 0.01,,,
ATP6AP1 (UniProt Q15904),inactive: -0.05,inactive: -0.02,inactive: 0.033,inactive: 0.09,inactive: 0.037,inactive: -0.074,inactive: 0.098,inactive: 0.016,inactive: -0.021,inactive: -0.097,inactive: 0.043,inactive: -0.011,inactive: 0.066,inactive: -0.057,inactive: -0.006,inactive: 0.053,inactive: -0.031,,,
ASAH1 isoform 2 (UniProt Q13510),inactive: -0.085,inactive: -0.043,inactive: -0.021,inactive: 0.135,inactive: -0.023,inactive: 0.034,inactive: -0.032,inactive: -0.174,inactive: -0.072,inactive: -0.027,inactive: -0.008,inactive: 0.117,inactive: -0.031,inactive: 0.002,inactive: 0.005,inactive: -0.03,inactive: 0.035,inactive: 0.122,inactive: -0.007,inactive: 0.019
ATP1A1 (UniProt P05023),inactive: 0.058,inactive: 0.059,inactive: -0.029,inactive: -0.025,inactive: -0.026,inactive: -0.009,inactive: -0.053,active: 0.26,inactive: 0.046,inactive: 0.039,inactive: -0.026,inactive: -0.026,inactive: -0.024,inactive: -0.009,inactive: 0.011,inactive: -0.001,inactive: 0.014,,,
ATOX1 (UniProt O00244),inactive: 0.009,inactive: 0,inactive: -0.015,inactive: 0.107,inactive: -0.079,inactive: 0.056,inactive: -0.023,inactive: 0.094,inactive: -0.042,inactive: -0.054,inactive: 0.062,inactive: 0.001,inactive: -0.117,inactive: -0.09,inactive: -0.046,inactive: 0.047,inactive: -0.105,,,
ATP5ME (UniProt P56385),inactive: 0.004,inactive: 0.038,inactive: -0.048,inactive: 0.075,inactive: 0.002,inactive: -0.054,inactive: 0.018,inactive: 0.069,inactive: 0.026,inactive: 0.009,inactive: -0.009,inactive: -0.006,inactive: 0.029,inactive: -0.022,inactive: -0.069,inactive: -0.07,inactive: 0.023,,,

# Some of the entries so far, bar-delimited:
Target | log2 fold change [1] | log2 fold change [2] | log2 fold change [3] | log2 fold change [4] | log2 fold change [5] | log2 fold change [6] | log2 fold change [7] | log2 fold change [8] | log2 fold change [9] | log2 fold change [10] | log2 fold change [11] | log2 fold change [12] | log2 fold change [13] | log2 fold change [14] | log2 fold change [15] | log2 fold change [16] | log2 fold change [17] | log2 fold change [18] | log2 fold change [19] | log2 fold change [20]
ASAH1 isoform 2 (UniProt Q13510) | inactive: -0.085 | inactive: -0.043 | inactive: -0.021 | inactive: 0.135 | inactive: -0.023 | inactive: 0.034 | inactive: -0.032 | inactive: -0.174 | inactive: -0.072 | inactive: -0.027 | inactive: -0.008 | inactive: 0.117 | inactive: -0.031 | inactive: 0.002 | inactive: 0.005 | inactive: -0.03 | inactive: 0.035 | inactive: 0.122 | inactive: -0.007 | inactive: 0.019
ATP1A1 (UniProt P05023) | inactive: 0.058 | inactive: 0.059 | inactive: -0.029 | inactive: -0.025 | inactive: -0.026 | inactive: -0.009 | inactive: -0.053 | active: 0.26 | inactive: 0.046 | inactive: 0.039 | inactive: -0.026 | inactive: -0.026 | inactive: -0.024 | inactive: -0.009 | inactive: 0.011 | inactive: -0.001 | inactive: 0.014 |  |  | 
